Assay results published in patent US6995249.
For some of these results: Negatives hold for the conditions tested. For some of these results: A weaker result is weaker than the reference pair of the same experiment.

Legend:
Raf-1 RBD (GST-RBD) [1] = target: Raf-1 RBD (GST-RBD) (UniProt P04049); assay: filter binding; conditions: Kd of micromolar order, no number in text; no inhibition of Ras binding at 12.5 uM; purified recombinant protein; protein details: GST fusion, expressed in E. coli; label: 32P
Raf-1 RBD (GST-RBD) [2] = target: Raf-1 RBD (GST-RBD) (UniProt P04049); assay: inhibition of the protein; conditions: purified recombinant protein, protein details: GST fusion, expressed in E. coli
[3] = dose-dependent inhibition of Ras binding to GST-RBD, 4 C, label: 5'-32P, dose not given here

Row | Sequence | functional effect of the aptamer (Raf-1 RBD (GST-RBD) [2]; [3]) | further results
1 | GGGAGAUCAGAAUAAACGCUCAACUUGAGCCAAUUAAAAGAUUUACAACAAGAACAUGAACGUGACAGCGAUAAUAAUACGAUUCGACAUGAGGCCCCUGCAGGGCG [clone 21.11] |  | binding result (Raf-1 RBD (GST-RBD) [1]): binds more weakly
2 | GGGAGAUCAGAAUAAACGCUCAAGCGACAAGCAGCAGAUAAAGUUGAGCGCAACGCCGCUACAGAACCAAAUUAACAUGUAUGUUCGACAUGAGGCCCCUGCAGGGCG [clone 21.12] |  | functional effect of the aptamer (Raf-1 RBD (GST-RBD) [2]; no inhibition of Ras binding at 12.5 uM, label: 32P): not active
3 | GGGAGUGGAGGAAUUCAUCGAGGCAUAUGUCGACUCCGUCUUCCUUCAAACCAGUUAUAAAUUGGUUUUAGCAUAUGCCUUAGCGACAGCAAGCUUCUGC [RNA aptamer SEQ ID NO:25] | active | 
4 | GGGAGUGGAGGAAUUCAUCGAGGCAUGACCUCCCGUGGCAGUAGGGGUAAAAAUUAUCUUCCUACACUUCUCAUGCCUUAGCGACAGCAAGCUUCUGC [RNA aptamer SEQ ID NO:26] | active | 
